Binding data for nine molecules are collected here from PMC12635394, “UBE2O-mediated ubiquitylation directs cytoplasmic CTNNA1 to promote cell-to-ECM adhesions” (EMBO Reports, 2025).

The chains behind the UniProt entries cited, without tags or fusion partners.
UniProt P26231: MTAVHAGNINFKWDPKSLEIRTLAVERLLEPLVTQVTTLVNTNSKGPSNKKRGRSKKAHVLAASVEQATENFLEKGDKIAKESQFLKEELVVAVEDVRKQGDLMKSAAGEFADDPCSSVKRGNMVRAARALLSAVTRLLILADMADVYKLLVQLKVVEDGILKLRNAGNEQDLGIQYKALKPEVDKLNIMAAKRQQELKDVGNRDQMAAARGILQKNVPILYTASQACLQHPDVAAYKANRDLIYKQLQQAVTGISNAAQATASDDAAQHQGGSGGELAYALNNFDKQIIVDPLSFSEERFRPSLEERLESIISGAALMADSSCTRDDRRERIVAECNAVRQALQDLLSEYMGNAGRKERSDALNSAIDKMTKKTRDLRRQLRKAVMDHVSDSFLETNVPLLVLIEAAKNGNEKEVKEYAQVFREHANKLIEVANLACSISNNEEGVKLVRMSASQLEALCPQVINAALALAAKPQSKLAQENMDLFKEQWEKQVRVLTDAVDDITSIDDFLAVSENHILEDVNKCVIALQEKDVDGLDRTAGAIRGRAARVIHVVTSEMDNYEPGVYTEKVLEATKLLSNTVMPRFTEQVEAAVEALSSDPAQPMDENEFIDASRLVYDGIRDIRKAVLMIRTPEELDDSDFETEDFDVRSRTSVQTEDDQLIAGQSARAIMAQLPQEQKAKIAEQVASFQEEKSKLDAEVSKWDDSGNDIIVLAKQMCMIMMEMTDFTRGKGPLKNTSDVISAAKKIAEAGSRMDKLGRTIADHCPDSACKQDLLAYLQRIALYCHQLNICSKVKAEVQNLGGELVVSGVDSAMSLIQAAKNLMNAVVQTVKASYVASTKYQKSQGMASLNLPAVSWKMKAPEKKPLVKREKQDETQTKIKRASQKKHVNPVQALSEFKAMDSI
UniProt P35222: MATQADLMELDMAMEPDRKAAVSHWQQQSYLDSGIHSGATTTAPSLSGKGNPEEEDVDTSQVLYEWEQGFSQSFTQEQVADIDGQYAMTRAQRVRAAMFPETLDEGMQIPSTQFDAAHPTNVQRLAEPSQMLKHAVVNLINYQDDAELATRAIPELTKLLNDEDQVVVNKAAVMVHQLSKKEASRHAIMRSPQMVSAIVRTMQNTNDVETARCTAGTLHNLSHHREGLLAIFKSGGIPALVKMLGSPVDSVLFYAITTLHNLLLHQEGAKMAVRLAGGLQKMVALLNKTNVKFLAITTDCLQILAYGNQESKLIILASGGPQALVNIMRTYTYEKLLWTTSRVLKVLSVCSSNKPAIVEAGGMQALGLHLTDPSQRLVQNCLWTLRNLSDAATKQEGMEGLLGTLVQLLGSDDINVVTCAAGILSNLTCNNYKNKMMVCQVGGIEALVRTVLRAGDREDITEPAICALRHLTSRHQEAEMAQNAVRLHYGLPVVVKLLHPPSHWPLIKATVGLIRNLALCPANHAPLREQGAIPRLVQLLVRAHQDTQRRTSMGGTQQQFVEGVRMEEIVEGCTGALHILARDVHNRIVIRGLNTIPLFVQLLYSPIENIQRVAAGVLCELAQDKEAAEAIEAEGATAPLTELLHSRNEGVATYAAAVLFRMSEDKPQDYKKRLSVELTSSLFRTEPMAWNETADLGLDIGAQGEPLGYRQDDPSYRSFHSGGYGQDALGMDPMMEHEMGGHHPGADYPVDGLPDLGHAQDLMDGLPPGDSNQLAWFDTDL
UniProt Q9NR09: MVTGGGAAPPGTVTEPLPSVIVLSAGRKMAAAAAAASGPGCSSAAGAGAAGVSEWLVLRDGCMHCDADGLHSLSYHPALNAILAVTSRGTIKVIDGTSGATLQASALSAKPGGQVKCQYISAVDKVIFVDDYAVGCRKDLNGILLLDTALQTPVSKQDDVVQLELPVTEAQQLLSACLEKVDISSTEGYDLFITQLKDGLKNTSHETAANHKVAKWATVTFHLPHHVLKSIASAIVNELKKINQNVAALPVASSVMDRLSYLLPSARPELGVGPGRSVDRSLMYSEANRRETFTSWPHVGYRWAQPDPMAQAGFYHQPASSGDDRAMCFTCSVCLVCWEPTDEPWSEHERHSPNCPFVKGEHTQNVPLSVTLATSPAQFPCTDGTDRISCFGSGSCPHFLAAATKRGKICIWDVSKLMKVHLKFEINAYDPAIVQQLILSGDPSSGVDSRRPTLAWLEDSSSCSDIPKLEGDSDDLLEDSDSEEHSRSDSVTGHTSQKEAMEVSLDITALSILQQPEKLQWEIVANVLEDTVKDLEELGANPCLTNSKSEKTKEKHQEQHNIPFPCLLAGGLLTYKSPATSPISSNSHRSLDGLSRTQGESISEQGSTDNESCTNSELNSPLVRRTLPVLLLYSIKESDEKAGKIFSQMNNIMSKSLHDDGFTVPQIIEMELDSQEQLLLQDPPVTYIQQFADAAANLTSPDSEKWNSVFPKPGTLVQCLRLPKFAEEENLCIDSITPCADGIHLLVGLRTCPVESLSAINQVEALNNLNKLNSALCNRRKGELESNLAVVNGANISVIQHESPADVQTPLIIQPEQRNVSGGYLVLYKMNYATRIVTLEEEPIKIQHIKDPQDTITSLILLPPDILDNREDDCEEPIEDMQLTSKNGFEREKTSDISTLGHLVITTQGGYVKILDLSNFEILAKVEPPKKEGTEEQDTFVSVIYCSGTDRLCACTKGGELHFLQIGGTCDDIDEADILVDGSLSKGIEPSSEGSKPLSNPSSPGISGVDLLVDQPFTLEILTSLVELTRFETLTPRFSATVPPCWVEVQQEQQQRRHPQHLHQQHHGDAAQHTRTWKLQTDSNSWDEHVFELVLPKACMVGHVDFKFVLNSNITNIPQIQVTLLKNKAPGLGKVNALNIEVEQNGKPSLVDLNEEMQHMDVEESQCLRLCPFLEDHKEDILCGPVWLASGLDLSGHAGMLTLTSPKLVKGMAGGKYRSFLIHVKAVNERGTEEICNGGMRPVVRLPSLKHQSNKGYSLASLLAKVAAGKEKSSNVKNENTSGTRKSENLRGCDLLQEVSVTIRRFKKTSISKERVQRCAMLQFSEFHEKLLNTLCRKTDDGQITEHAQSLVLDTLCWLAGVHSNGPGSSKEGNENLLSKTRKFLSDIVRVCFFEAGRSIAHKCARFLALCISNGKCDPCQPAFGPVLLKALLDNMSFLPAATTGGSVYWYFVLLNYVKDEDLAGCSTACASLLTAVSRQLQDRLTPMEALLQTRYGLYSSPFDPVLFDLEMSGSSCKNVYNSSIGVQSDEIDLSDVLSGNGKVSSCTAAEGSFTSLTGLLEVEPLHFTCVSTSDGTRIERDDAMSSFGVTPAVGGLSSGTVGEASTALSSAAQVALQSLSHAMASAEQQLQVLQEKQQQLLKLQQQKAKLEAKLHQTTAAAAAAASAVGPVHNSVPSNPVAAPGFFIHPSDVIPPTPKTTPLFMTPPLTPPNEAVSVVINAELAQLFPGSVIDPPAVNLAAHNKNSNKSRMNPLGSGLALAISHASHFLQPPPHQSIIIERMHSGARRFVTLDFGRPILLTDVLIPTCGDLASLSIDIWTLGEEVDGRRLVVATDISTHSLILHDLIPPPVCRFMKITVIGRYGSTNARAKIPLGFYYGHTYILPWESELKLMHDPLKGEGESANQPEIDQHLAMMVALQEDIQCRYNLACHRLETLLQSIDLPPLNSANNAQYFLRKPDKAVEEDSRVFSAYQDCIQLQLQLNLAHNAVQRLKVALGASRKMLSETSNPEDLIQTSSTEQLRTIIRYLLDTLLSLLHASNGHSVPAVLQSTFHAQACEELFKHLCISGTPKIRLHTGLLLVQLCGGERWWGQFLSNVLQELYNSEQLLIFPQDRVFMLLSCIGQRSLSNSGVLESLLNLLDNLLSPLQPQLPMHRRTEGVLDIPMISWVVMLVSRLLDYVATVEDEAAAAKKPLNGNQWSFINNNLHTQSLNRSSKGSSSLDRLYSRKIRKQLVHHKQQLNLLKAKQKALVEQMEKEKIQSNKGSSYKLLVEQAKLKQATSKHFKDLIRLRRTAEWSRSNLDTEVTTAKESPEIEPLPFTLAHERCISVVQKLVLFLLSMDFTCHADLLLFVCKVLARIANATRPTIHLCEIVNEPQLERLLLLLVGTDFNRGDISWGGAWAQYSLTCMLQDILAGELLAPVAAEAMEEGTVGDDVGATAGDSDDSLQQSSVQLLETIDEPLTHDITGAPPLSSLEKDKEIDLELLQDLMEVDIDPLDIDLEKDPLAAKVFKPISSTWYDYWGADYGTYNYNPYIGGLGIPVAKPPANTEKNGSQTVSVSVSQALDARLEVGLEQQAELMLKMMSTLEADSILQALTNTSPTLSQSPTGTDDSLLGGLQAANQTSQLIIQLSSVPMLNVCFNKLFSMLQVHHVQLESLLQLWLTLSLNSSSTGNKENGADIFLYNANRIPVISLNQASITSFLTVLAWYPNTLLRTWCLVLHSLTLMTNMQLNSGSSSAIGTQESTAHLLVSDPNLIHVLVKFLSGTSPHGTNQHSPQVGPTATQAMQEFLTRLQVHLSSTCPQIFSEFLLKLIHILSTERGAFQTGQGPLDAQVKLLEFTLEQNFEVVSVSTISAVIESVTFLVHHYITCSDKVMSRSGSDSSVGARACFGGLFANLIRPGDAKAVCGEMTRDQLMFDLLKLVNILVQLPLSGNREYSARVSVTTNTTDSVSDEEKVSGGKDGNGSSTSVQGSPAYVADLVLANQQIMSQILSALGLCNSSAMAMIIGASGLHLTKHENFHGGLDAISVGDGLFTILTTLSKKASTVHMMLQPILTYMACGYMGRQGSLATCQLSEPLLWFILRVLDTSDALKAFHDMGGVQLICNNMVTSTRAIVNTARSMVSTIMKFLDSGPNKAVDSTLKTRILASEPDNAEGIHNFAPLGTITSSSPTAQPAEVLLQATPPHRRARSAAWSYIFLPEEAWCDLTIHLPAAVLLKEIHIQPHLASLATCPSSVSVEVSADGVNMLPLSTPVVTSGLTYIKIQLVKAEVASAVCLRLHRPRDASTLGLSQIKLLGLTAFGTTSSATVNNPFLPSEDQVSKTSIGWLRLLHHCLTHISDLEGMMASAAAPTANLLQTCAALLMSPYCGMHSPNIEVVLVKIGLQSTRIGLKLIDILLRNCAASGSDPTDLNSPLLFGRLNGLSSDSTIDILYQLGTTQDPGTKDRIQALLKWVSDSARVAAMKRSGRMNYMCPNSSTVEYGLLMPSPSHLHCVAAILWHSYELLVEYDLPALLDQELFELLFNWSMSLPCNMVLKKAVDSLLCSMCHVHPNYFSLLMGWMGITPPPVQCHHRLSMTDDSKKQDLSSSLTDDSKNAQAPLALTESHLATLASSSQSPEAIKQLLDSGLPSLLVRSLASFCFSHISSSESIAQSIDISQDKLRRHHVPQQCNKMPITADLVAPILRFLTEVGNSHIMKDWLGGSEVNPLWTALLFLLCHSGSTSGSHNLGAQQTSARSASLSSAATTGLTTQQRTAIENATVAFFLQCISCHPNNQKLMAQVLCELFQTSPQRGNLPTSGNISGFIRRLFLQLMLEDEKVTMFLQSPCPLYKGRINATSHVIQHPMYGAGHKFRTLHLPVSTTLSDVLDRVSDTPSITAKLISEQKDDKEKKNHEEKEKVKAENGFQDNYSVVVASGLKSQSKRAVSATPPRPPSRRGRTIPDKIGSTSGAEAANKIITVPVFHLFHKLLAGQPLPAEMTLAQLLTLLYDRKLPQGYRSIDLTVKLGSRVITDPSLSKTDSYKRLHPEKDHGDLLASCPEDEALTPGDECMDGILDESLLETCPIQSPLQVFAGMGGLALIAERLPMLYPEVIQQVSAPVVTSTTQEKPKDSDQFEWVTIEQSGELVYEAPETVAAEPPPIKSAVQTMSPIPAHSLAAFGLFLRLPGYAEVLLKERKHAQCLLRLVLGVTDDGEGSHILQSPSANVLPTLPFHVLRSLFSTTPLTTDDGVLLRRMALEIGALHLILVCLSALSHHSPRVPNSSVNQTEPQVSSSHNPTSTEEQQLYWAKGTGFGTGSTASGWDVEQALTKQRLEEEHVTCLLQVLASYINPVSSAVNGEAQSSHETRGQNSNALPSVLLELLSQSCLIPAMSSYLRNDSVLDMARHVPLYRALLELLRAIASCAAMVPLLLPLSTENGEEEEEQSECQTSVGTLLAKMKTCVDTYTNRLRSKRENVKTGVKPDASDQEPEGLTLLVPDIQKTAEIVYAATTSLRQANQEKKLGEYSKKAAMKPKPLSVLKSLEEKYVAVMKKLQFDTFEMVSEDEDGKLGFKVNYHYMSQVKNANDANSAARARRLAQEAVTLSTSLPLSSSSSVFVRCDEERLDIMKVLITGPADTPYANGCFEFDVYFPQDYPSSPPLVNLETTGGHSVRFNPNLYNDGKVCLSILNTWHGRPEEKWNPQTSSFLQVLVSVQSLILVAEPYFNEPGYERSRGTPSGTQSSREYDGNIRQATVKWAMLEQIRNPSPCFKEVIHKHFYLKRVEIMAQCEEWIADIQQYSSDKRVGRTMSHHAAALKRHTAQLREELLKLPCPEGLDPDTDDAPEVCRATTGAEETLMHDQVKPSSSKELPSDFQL

First the molecules themselves.
B1: endogenous human UBE2O (enzyme, UniProt Q9C0C9 1-1292)
chain: MADPAAPTPAAPAPAQAPAPAPEAVPAPAAAPVPAPAPASDSASGPSSDSGPEAGSQRLLFSHDLVSGRYRGSVHFGLVRLIHGEDSDSEGEEEGRGSSGCSEAGGAGHEEGRASPLRRGYVRVQWYPEGVKQHVKETKLKLEDRSVVPRDVVRHMRSTDSQCGTVIDVNIDCAVKLIGTNCIIYPVNSKDLQHIWPFMYGDYIAYDCWLGKVYDLKNQIILKLSNGARCSMNTEDGAKLYDVCPHVSDSGLFFDDSYGFYPGQVLIGPAKIFSSVQWLSGVKPVLSTKSKFRVVVEEVQVVELKVTWITKSFCPGGTDSVSPPPSVITQENLGRVKRLGCFDHAQRQLGERCLYVFPAKVEPAKIAWECPEKNCAQGEGSMAKKVKRLLKKQVVRIMSCSPDTQCSRDHSMEDPDKKGESKTKSEAESASPEETPDGSASPVEMQDEGAEEPHEAGEQLPPFLLKEGRDDRLHSAEQDADDEAADDTDDTSSVTSSASSTTSSQSGSGTSRKKSIPLSIKNLKRKHKRKKNKITRDFKPGDRVAVEVVTTMTSADVMWQDGSVECNIRSNDLFPVHHLDNNEFCPGDFVVDKRVQSCPDPAVYGVVQSGDHIGRTCMVKWFKLRPSGDDVELIGEEEDVSVYDIADHPDFRFRTTDIVIRIGNTEDGAPHKEDEPSVGQVARVDVSSKVEVVWADNSKTIILPQHLYNIESEIEESDYDSVEGSTSGASSDEWEDDSDSWETDNGLVEDEHPKIEEPPIPPLEQPVAPEDKGVVISEEAATAAVQGAVAMAAPMAGLMEKAGKDGPPKSFRELKEAIKILESLKNMTVEQLLTGSPTSPTVEPEKPTREKKFLDDIKKLQENLKKTLDNVAIVEEEKMEAVPDVERKEDKPEGQSPVKAEWPSETPVLCQQCGGKPGVTFTSAKGEVFSVLEFAPSNHSFKKIEFQPPEAKKFFSTVRKEMALLATSLPEGIMVKTFEDRMDLFSALIKGPTRTPYEDGLYLFDIQLPNIYPAVPPHFCYLSQCSGRLNPNLYDNGKVCVSLLGTWIGKGTERWTSKSSLLQVLISIQGLILVNEPYYNEAGFDSDRGLQEGYENSRCYNEMALIRVVQSMTQLVRRPPEVFEQEIRQHFSTGGWRLVNRIESWLETHALLEKAQALPNGVPKASSSPEPPAVAELSDSGQQEPEDGGPAPGEASQGSDSEGGAQGLASASRDHTDQTSETAPDASVPPSVKPKKRRKSYRSFLPEKSGYPDIGFPLFPLSKGFIKSIRGVLTQFRAALLEAGMPECTEDK
B2: endogenous USP36 of HEK293T cells (enzyme, UniProt Q9P275 1-1123)
chain: MPIVDKLKEALKPGRKDSADDGELGKLLASSAKKVLLQKIEFEPASKSFSYQLEALKSKYVLLNPKTEGASRHKSGDDPPARRQGSEHTYESCGDGVPAPQKVLFPTERLSLRWERVFRVGAGLHNLGNTCFLNATIQCLTYTPPLANYLLSKEHARSCHQGSFCMLCVMQNHIVQAFANSGNAIKPVSFIRDLKKIARHFRFGNQEDAHEFLRYTIDAMQKACLNGCAKLDRQTQATTLVHQIFGGYLRSRVKCSVCKSVSDTYDPYLDVALEIRQAANIVRALELFVKADVLSGENAYMCAKCKKKVPASKRFTIHRTSNVLTLSLKRFANFSGGKITKDVGYPEFLNIRPYMSQNNGDPVMYGLYAVLVHSGYSCHAGHYYCYVKASNGQWYQMNDSLVHSSNVKVVLNQQAYVLFYLRIPGSKKSPEGLISRTGSSSLPGRPSVIPDHSKKNIGNGIISSPLTGKRQDSGTMKKPHTTEEIGVPISRNGSTLGLKSQNGCIPPKLPSGSPSPKLSQTPTHMPTILDDPGKKVKKPAPPQHFSPRTAQGLPGTSNSNSSRSGSQRQGSWDSRDVVLSTSPKLLATATANGHGLKGNDESAGLDRRGSSSSSPEHSASSDSTKAPQTPRSGAAHLCDSQETNCSTAGHSKTPPSGADSKTVKLKSPVLSNTTTEPASTMSPPPAKKLALSAKKASTLWRATGNDLRPPPPSPSSDLTHPMKTSHPVVASTWPVHRARAVSPAPQSSSRLQPPFSPHPTLLSSTPKPPGTSEPRSCSSISTALPQVNEDLVSLPHQLPEASEPPQSPSEKRKKTFVGEPQRLGSETRLPQHIREATAAPHGKRKRKKKKRPEDTAASALQEGQTQRQPGSPMYRREGQAQLPAVRRQEDGTQPQVNGQQVGCVTDGHHASSRKRRRKGAEGLGEEGGLHQDPLRHSCSPMGDGDPEAMEESPRKKKKKKRKQETQRAVEEDGHLKCPRSAKPQDAVVPESSSCAPSANGWCPGDRMGLSQAPPVSWNGERESDVVQELLKYSSDKAYGRKVLTWDGKMSAVSQDAIEDSRQARTETVVDDWDEEFDRGKEKKIKKFKREKRRNFNAFQKLQTRRNFWSVTHPAKAASLSYRR
B3: CTNNA2 of the cell lysate used for the ubiquitylated-CTNNA1 interactome (protein, UniProt P26232 1-953)
chain: MTSATSPIILKWDPKSLEIRTLTVERLLEPLVTQVTTLVNTSNKGPSGKKKGRSKKAHVLAASVEQATQNFLEKGEQIAKESQDLKEELVAAVEDVRKQGETMRIASSEFADDPCSSVKRGTMVRAARALLSAVTRLLILADMADVMRLLSHLKIVEEALEAVKNATNEQDLANRFKEFGKEMVKLNYVAARRQQELKDPHCRDEMAAARGALKKNATMLYTASQAFLRHPDVAATRANRDYVFKQVQEAIAGISNAAQATSPTDEAKGHTGIGELAAALNEFDNKIILDPMTFSEARFRPSLEERLESIISGAALMADSSCTRDDRRERIVAECNAVRQALQDLLSEYMNNTGRKEKGDPLNIAIDKMTKKTRDLRRQLRKAVMDHISDSFLETNVPLLVLIEAAKSGNEKEVKEYAQVFREHANKLVEVANLACSISNNEEGVKLVRMAATQIDSLCPQVINAALTLAARPQSKVAQDNMDVFKDQWEKQVRVLTEAVDDITSVDDFLSVSENHILEDVNKCVIALQEGDVDTLDRTAGAIRGRAARVIHIINAEMENYEAGVYTEKVLEATKLLSETVMPRFAEQVEVAIEALSANVPQPFEENEFIDASRLVYDGVRDIRKAVLMIRTPEELEDDSDFEQEDYDVRSRTSVQTEDDQLIAGQSARAIMAQLPQEEKAKIAEQVEIFHQEKSKLDAEVAKWDDSGNDIIVLAKQMCMIMMEMTDFTRGKGPLKNTSDVINAAKKIAEAGSRMDKLARAVADQCPDSACKQDLLAYLQRIALYCHQLNICSKVKAEVQNLGGELIVSGTGVQSTFTTFYEVDCDVIDGGRASQLSTHLPTCAEGAPIGSGSSDSSMLDSATSLIQAAKNLMNAVVLTVKASYVASTKYQKVYGTAAVNSPVVSWKMKAPEKKPLVKREKPEEFQTRVRRGSQKKHISPVQALSEFKAMDSF

No constants are given. Whether binding was seen depends on the method and setting. Binding seen in cells or lysates may run through a third protein. These calls come from enrichment with a bait or labelling near it, and not all partners need be listed.

For one experiment, the target named is endogenous CTNNA1 of mouse embryonic fibroblasts (mouse (endogenous in MEFs)) (UniProt P26231). The experiment in a line: affinity purification with mass spectrometry; endogenous CTNNA1 precipitated with rabbit anti-CTNNA1 (or rabbit IgG) from lysates of shLuciferase or shUbe2o MEFs, on-bead digestion, label-free quantification.
As for “endogenous β-catenin of mouse embryonic fibroblasts (from UniProt Q02248 1-781)”, the binding result was “binds”.

The next experiment concerns the target Flag-tagged CTNNA1 (full-length mouse Ctnna1) (mouse) (UniProt P26231). The experiment in a line: affinity purification with mass spectrometry; Flag-CTNNA1 transiently overexpressed in HEK293T, immunoprecipitation with Flag beads, on-bead trypsin digestion, label-free quantification (fold change >2 and P < 0.05).
As to “endogenous RAD18 of HEK293T cells (from UniProt Q9NS91 1-495) (enzyme)”, the binding entry was “binds”.

Regarding “endogenous β-catenin (CTNNB1) of HEK293T cells (from UniProt P35222 1-781)”, the binding entry is on record as “binds”. Same read-out and setting: in the case of “endogenous BIRC6 of HEK293T cells (from UniProt Q9NR09 1-4857) (enzyme)” it was “binds”. Same read-out and setting: in the case of B1 it was “binds”. Same read-out and setting: the value for B2 was “binds”.

A further experiment addresses CTNNA1-V5 (purified mouse CTNNA1 with C-terminal V5 tag) (mouse) (UniProt P26231). The experiment in a line: affinity purification with mass spectrometry; ctrl, CTNNA1-V5 (no ATP) or ubiquitylated CTNNA1-V5 baits on V5-Trap magnetic agarose, incubated with cell lysate overnight at 4 °C, on-bead digestion, label-free quantification; only the target purified.
On to “CTNNA1 of the cell lysate used for the ubiquitylated-CTNNA1 interactome (from UniProt P35221 1-906)”, for which the binding result is listed as “binds”.

“β-catenin of the cell lysate used for the ubiquitylated-CTNNA1 interactome (from UniProt P35222 1-781)”: the binding result was “binds”. Still for that read-out and setting: in the case of B3 it was “binds”.
